Measurements as given in the supplement of paper PMC10849652.
Some of the results follow.

Sequences of proteins named here, by UniProt entry; tags and fusion partners are left off. A change or cut given only in a name is not applied to a line headed by its entry.
UniProt Q9UI95, whole entry, looked up: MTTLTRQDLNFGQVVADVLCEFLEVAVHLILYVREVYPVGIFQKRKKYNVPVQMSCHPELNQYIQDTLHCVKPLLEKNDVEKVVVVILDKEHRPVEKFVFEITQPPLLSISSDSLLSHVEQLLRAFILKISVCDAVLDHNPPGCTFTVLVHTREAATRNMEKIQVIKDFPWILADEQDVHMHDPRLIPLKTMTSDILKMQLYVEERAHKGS
UniProt P27816: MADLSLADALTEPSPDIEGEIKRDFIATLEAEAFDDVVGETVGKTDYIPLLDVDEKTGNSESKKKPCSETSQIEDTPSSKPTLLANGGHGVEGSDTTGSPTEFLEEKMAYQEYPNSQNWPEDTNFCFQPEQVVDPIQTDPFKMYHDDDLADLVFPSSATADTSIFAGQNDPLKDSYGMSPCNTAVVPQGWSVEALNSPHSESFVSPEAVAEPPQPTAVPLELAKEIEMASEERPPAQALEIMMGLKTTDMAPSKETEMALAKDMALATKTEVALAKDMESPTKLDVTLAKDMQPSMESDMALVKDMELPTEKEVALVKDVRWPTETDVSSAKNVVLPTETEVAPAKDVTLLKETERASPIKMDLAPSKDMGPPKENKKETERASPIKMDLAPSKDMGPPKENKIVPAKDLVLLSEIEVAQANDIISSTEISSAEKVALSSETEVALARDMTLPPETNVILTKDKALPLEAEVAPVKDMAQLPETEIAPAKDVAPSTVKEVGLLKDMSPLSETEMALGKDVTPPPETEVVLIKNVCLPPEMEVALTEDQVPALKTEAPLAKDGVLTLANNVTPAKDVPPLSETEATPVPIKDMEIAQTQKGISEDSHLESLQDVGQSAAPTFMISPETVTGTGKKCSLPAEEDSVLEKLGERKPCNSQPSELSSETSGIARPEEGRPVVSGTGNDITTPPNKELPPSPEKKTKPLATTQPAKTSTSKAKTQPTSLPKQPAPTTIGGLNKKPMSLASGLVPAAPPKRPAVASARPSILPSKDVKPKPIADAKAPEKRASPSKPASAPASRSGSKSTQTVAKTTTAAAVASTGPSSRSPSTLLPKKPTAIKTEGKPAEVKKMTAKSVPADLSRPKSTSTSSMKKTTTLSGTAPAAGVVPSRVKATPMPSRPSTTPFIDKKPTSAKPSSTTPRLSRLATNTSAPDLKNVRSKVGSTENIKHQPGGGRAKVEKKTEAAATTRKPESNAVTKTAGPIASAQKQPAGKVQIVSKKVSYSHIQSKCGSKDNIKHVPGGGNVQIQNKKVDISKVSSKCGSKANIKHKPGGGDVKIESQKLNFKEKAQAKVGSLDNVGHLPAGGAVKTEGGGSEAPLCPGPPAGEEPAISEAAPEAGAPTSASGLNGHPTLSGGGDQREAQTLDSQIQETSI
UniProt Q15759, whole entry, looked up: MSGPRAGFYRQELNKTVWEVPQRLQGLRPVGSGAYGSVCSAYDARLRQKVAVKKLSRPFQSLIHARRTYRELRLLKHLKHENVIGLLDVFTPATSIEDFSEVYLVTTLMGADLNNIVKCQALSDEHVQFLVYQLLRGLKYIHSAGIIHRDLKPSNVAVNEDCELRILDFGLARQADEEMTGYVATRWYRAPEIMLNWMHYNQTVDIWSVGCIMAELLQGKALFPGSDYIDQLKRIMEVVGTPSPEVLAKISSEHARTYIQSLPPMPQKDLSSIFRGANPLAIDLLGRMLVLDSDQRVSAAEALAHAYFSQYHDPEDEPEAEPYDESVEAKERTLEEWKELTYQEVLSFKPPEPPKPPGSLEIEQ
UniProt P20645: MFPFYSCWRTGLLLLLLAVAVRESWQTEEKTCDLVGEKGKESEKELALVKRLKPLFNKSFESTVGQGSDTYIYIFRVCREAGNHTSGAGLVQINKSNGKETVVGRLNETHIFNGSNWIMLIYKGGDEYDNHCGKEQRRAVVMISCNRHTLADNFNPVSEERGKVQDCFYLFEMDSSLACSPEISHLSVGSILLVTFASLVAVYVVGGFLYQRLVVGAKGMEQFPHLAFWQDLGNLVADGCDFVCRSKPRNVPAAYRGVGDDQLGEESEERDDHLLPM
UniProt Q96QZ7: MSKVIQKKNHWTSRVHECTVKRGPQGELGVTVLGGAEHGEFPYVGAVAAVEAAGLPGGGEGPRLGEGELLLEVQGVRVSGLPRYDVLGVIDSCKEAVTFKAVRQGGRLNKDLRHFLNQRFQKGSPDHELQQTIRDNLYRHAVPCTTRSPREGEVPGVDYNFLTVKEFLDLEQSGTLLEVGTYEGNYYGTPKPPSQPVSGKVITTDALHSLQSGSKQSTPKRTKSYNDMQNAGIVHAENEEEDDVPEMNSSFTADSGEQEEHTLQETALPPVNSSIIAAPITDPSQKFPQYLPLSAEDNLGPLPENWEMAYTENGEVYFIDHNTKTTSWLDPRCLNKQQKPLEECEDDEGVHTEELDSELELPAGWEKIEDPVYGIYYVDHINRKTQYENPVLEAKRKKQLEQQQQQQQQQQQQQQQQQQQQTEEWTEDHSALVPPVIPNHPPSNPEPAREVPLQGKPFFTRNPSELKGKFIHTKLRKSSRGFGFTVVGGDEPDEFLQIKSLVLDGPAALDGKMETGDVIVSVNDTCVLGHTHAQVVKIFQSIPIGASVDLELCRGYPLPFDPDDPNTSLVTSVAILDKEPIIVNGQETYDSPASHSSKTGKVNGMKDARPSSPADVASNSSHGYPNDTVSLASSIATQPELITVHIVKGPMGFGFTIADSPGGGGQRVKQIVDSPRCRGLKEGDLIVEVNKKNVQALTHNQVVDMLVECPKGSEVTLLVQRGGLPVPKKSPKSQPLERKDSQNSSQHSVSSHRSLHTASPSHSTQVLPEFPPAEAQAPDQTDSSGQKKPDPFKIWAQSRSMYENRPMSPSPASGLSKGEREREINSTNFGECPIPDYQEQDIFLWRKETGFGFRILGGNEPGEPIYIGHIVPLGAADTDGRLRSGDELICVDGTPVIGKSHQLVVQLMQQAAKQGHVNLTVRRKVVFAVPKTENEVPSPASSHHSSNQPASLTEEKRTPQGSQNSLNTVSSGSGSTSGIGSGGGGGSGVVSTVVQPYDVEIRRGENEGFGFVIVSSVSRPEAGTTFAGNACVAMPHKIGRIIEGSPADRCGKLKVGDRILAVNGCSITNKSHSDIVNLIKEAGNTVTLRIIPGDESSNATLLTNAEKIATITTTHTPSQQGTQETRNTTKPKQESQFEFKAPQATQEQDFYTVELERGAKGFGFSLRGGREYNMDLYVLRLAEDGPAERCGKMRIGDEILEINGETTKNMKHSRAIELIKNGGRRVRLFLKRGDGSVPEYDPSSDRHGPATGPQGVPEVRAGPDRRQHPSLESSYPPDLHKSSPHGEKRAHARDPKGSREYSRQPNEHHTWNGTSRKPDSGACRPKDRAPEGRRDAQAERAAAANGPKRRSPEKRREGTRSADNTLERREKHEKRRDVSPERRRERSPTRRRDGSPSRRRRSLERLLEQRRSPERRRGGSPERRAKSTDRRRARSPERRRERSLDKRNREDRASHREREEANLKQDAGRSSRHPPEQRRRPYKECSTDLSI
UniProt P53778: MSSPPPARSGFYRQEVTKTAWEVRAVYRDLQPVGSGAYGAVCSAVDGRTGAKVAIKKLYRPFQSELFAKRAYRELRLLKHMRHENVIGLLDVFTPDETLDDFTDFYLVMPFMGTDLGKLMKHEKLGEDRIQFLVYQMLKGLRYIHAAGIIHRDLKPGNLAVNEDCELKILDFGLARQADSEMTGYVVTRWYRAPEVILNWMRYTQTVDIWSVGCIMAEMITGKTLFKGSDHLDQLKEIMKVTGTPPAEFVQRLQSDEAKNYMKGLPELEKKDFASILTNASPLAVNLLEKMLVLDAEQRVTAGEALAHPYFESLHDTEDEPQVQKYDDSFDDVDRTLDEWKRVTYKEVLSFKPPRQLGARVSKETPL
UniProt Q9HD34: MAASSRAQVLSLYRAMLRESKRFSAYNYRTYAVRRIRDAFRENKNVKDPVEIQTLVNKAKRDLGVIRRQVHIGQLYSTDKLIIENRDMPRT
UniProt Q13257, whole entry, looked up: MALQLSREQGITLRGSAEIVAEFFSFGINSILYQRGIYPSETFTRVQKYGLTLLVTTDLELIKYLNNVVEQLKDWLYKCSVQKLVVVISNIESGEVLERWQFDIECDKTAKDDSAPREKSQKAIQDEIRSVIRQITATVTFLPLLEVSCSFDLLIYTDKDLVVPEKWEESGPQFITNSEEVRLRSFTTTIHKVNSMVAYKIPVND
UniProt Q3KQU3: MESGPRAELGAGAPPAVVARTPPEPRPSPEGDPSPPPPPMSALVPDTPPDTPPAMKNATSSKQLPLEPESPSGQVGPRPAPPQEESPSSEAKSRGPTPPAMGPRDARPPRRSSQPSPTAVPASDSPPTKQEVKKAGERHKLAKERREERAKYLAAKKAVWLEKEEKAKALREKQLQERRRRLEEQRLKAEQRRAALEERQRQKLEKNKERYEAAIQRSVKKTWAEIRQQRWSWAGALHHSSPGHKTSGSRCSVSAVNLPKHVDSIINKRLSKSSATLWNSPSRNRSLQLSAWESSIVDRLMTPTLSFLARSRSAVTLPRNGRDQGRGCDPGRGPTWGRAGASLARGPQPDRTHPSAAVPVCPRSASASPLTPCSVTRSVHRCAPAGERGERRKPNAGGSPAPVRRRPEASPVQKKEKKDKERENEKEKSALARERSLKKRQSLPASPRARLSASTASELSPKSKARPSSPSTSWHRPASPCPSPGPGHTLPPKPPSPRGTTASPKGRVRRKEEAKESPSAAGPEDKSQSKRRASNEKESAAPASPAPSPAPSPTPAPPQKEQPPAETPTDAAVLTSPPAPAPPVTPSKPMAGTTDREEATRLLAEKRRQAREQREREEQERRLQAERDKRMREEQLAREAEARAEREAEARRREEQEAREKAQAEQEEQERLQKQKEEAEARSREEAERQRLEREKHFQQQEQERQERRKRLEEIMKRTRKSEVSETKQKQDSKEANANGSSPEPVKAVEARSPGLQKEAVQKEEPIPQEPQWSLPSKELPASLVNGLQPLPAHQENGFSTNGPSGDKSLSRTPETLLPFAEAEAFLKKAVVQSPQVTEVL
UniProt O60732: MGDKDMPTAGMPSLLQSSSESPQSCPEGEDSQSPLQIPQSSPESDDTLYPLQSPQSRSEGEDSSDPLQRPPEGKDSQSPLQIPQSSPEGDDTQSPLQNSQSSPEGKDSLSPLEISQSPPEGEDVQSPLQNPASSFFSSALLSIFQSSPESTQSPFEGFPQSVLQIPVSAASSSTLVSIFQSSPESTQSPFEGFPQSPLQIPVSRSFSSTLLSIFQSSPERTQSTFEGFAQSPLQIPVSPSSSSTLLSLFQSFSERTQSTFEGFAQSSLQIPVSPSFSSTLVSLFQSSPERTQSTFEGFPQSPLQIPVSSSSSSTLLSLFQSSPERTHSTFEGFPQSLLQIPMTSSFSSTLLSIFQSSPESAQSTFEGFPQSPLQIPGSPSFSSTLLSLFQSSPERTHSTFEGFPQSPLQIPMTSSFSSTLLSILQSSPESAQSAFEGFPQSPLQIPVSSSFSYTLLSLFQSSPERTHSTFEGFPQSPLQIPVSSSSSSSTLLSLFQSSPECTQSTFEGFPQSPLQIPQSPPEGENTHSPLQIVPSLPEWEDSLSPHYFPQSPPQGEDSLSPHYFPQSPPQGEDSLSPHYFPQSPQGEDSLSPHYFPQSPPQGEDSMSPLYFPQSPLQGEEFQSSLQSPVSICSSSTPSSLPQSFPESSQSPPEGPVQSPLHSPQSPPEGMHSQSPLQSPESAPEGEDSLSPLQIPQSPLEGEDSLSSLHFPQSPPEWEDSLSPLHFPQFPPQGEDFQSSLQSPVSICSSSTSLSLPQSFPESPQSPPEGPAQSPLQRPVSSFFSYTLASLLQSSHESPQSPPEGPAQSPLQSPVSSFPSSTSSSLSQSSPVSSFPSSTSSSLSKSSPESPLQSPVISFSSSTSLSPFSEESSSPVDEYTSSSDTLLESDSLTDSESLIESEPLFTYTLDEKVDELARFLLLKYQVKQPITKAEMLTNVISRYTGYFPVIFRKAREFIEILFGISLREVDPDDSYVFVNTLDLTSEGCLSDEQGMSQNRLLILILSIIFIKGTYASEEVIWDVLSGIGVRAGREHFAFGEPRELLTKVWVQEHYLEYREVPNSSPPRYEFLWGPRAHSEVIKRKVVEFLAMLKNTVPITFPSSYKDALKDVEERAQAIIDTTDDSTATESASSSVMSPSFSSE
UniProt O14733: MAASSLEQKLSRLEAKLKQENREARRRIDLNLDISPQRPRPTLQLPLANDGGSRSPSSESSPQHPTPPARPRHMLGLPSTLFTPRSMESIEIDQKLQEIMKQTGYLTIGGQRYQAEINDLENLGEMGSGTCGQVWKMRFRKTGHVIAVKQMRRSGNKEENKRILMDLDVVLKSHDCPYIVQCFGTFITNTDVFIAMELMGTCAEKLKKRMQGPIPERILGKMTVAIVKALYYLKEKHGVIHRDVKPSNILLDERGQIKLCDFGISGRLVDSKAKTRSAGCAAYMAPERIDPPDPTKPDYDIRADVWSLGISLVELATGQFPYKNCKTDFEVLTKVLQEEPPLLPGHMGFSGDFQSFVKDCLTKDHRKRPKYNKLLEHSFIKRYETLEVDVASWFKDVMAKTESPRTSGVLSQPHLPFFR

Tests used:
Assay in all cases: log2 fold change, soluble protein after heating vs DMSO (PISA); higher = thermal stabilisation; K562 lysate, 10 uM; active = over 0.2 and 3.5 SD of the protein, either way, in both replicates (recomputed)
[1] = compound: C1=CC=C(C=C1)[C@H](COC2=CC3=C(C=C2)NC(=O)N3)NC(=O)C4=CC=CN(C4=O)CC5=CC(=C(C=C5)F)F
Summary of the method: (§1)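 Thermal stability, expressed as log-two fold change relative to solvent controls, is given from duplicates. Crude K562 extract in PBS pH 7.4 with 1 mM MgCl2, at 1 mg/mL protein, was treated with 10 μM compound for 30 min and heated in aliquots for 3 min across 48°C-58°C. After pooling, adjustment to 0.5% NP-40 at 4°C and centrifugation at 21,000xg for 90 min, supernatant protein was measured by TMTpro 16plex LC-MS/MS with channel sums equalised.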

[2] = compound: CC1=C(SC2=C1C(=N[C@H](C3=NN=C(N32)C)CC(=O)N)C4=CC=C(C=C4)Cl)C
Summary of the method: as §1

[3] = compound: CC1=C2C(=CC=C1)N=C(N(C2=O)C3=CC=CC=C3C)CN4C=NC5=C(N=CN=C54)N
Summary of the method: as §1

[4] = compound: Cc1sc2c(c1C)C(c1ccc(Cl)cc1)=N[C@@H](CC(=O)OC(C)(C)C)c1nnc(C)n1-2
Summary of the method: as §1

[5] = compound: c1ccc([C@@H]2C[C@H]2NC2CCNCC2)cc1
Summary of the method: as §1

Measured: log2 fold change

MAP3K4 (UniProt Q9Y6R4)
inactive: [1] 0.012 | [2] -0.079 | [3] -0.001 | [4] -0.03 | [5] -0.008

MAPK8IP3 (UniProt Q9UPT6)
inactive: [1] 0.02 | [2] 0.027 | [3] 0.062 | [4] -0.065 | [5] 0.043

MAD1L1 (UniProt Q9Y6D9)
inactive: [1] 0.072 | [2] -0.04 | [3] 0.021 | [4] -0.013 | [5] -0.011

MAD2L2 (UniProt Q9UI95)
inactive: [1] -0.032 | [2] -0.006 | [3] -0.018 | [4] -0.085 | [5] 0.096

MAP4 isoform 5 (UniProt P27816)
inactive: [1] -0.065 | [2] 0.099 | [3] 0.163 | [4] 0.181

MAP3K20 isoform 2 (UniProt Q9NYL2)
inactive: [1] -0.066 | [2] -0.006 | [3] 0.106 | [4] 0.015 | [5] -0.206

LZTR1 (UniProt Q8N653)
inactive: [1] -0.237 | [2] 0.004 | [3] 0.005 | [4] -0.004 | [5] 0.036

MAPK6 (UniProt Q16659)
inactive: [1] 0.062 | [2] -0.015 | [3] -0.016 | [4] -0.001 | [5] -0.037

LZTFL1 (UniProt Q9NQ48)
inactive: [1] 0.009 | [2] 0.028 | [3] -0.005 | [4] -0.011 | [5] 0.03

MAT2A (UniProt P31153)
inactive: [1] 0.042 | [2] 0.002 | [3] 0.033 | [4] 0.004 | [5] 0.012

MAN1A1 (UniProt P33908)
inactive: [1] 0.056 | [2] -0.029 | [3] -0.056 | [4] -0.049 | [5] -0.017

MAP2K3 isoform 3 (UniProt P46734)
inactive: [1] 0.035 | [2] -0.021 | [3] -0.024 | [4] 0.043 | [5] -0.006

LUC7L (UniProt Q9NQ29)
inactive: [1] 0.011 | [2] 0.013 | [3] 0.006 | [4] 0.003 | [5] 0.055

MAST4 (UniProt O15021)
inactive: [1] 0.007 | [2] -0.019 | [3] -0.037 | [4] 0.023 | [5] 0

MAPK11 (UniProt Q15759)
inactive: [1] -0.044 | [2] -0.036

LYAR (UniProt Q9NX58)
inactive: [1] 0.051 | [2] 0.015 | [3] -0.006 | [4] 0.031 | [5] 0.11

M6PR (UniProt P20645)
inactive: [1] -0.015 | [2] 0.009 | [3] -0.053 | [4] -0.038 | [5] -0.088

MAPRE3 (UniProt Q9UPY8)
inactive: [1] -0.039 | [2] -0.003 | [3] -0.029 | [4] 0.081 | [5] 0.139

LYZ (UniProt P61626)
inactive: [1] -0.065 | [2] 0.064 | [3] 0.383 | [4] 0.048 | [5] -0.189

MAK16 (UniProt Q9BXY0)
inactive: [1] -0.02 | [2] 0.001 | [3] 0.02 | [4] 0.015 | [5] -0.025

MAPKAPK3 (UniProt Q16644)
inactive: [1] 0.03 | [2] -0.031 | [3] -0.005 | [4] 0.009 | [5] 0.019

Copied from the results shown (two entries):
LZTR1 (UniProt Q8N653)
inactive: [1] -0.237 | [2] 0.004 | [3] 0.005 | [4] -0.004 | [5] 0.036

MAPK6 (UniProt Q16659)
inactive: [1] 0.062 | [2] -0.015 | [3] -0.016 | [4] -0.001 | [5] -0.037

Additional records.

MARF1 (UniProt Q9Y4F3)
inactive: [1] -0.052 | [2] 0.013 | [3] 0.175 | [4] 0.024 | [5] -0.023

MALSU1 (UniProt Q96EH3)
inactive: [1] -0.008 | [2] 0.048 | [3] -0.043 | [4] -0.07 | [5] -0.105

MAF1 (UniProt Q9H063)
inactive: [1] 0.063 | [2] 0.006 | [3] 0.015 | [4] 0.117 | [5] -0.068

MAGI1 isoform 6 (UniProt Q96QZ7)
inactive: [1] -0.001 | [2] -0.002 | [3] 0.018 | [4] 0.014 | [5] 0.01

MAN1A2 (UniProt O60476)
inactive: [1] -0.019 | [2] 0.035 | [3] 0.037 | [4] 0.055 | [5] 0.073

MARCKSL1 (UniProt P49006)
inactive: [1] 0.028 | [2] -0.021 | [3] -0.043 | [4] 0.078 | [5] 0.127

MAPK12 (UniProt P53778)
inactive: [1] 0.029 | [2] 0.068 | [3] -0.015 | [4] -0.002 | [5] 0.307

MARS (UniProt P56192)
inactive: [1] -0.019 | [2] 0.013 | [3] 0.011 | [4] -0.003 | [5] 0.039

MARK2 (UniProt E9PC69)
inactive: [1] 0.003 | [2] -0.004 | [3] 0.071 | [4] -0.043 | [5] 0.035

Two records picked at random from those above:
MALSU1 (UniProt Q96EH3)
inactive: [1] -0.008 | [2] 0.048 | [3] -0.043 | [4] -0.07 | [5] -0.105

MARF1 (UniProt Q9Y4F3)
inactive: [1] -0.052 | [2] 0.013 | [3] 0.175 | [4] 0.024 | [5] -0.023

Further entries

LYPLA2 (UniProt O95372)
inactive: [1] -0.14 | [2] -0.069 | [3] 0.099 | [4] 0.041 | [5] 0.127

LZTS2 (UniProt Q9BRK4)
inactive: [1] -0.058 | [2] -0.09 | [3] 0.031 | [4] -0.104

LYRM4 (UniProt Q9HD34)
inactive: [1] -0.03 | [2] 0.074 | [3] 0.077 | [4] 0.006 | [5] 0.004

MAD2L1 (UniProt Q13257)
inactive: [1] -0.045 | [2] 0.006 | [3] -0.008 | [4] -0.035 | [5] -0.079

MAPK14 (UniProt Q16539)
inactive: [1] 0.007 | [2] 0.024 | [3] 0.034 | [4] -0.04 | [5] -0.015

MARVELD1 (UniProt Q9BSK0)
inactive: [1] -0.146 | [2] -0.029 | [3] 0.317 | [4] -0.178 | [5] -0.083

MACF1 isoform 3 (UniProt Q9UPN3)
inactive: [1] -0.001 | [2] 0.002 | [3] 0.027 | [4] -0.011 | [5] 0

MAP2K2 (UniProt P36507)
inactive: [1] -0.04 | [2] 0.022 | [3] -0.047 | [4] -0.068 | [5] 0.064

MAPK1 (UniProt P28482)
inactive: [1] 0.045 | [2] -0.006 | [3] -0.016 | [4] 0.039 | [5] 0.012

MAP7D1 (UniProt Q3KQU3)
inactive: [1] 0.054 | [2] -0.02 | [3] -0.082 | [4] -0.004 | [5] 0.013

MACO1 (UniProt Q8N5G2)
inactive: [1] -0.039 | [2] -0.044 | [3] 0.125 | [4] -0.04 | [5] 0.092

MAGEC1 (UniProt O60732)
inactive: [1] -0.013 | [2] 0.014 | [3] 0.007 | [4] -0.008 | [5] 0.013

MARK3 (UniProt P27448)
inactive: [1] 0.02 | [2] 0.069 | [3] 0.118 | [4] -0.06 | [5] 0.053

MAGED2 (UniProt Q9UNF1)
inactive: [1] 0 | [2] 0.08 | [3] 0.076 | [4] 0 | [5] 0.048

MAP3K7 (UniProt O43318)
inactive: [1] 0.015 | [2] 0.003 | [3] 0.006 | [4] -0.002 | [5] -0.012

LYPLAL1 (UniProt Q5VWZ2)
inactive: [1] -0.077 | [2] 0.011 | [3] 0.021 | [4] -0.002 | [5] 0.007

MASTL (UniProt Q96GX5)
inactive: [1] 0.036 | [2] -0.055 | [3] 0.134 | [4] 0.01 | [5] -0.016

MAP2K7 isoform 4 (UniProt O14733)
inactive: [1] -0.072 | [2] -0.261 | [3] -0.038 | [4] 0.066 | [5] 0.079

MAP3K20 (UniProt Q9NYL2)
inactive: [1] 0.024 | [2] 0.023 | [3] -0.04 | [4] 0.118 | [5] -0.011

LTO1 (UniProt Q8WV07)
inactive: [1] -0.021 | [2] -0.232 | [3] 0.027 | [4] 0.036 | [5] -0.041

MAPRE2 (UniProt Q15555)
inactive: [1] 0.037 | [2] 0.013 | [3] -0.046 | [4] 0.009 | [5] 0.046

MAP1B (UniProt P46821)
inactive: [1] 0.02 | [2] 0.004 | [3] -0.02 | [4] -0.009 | [5] -0.018

MACF1, A0A0A6YYJ5
inactive: [1] -0.048 | [2] -0.032 | [3] 0.086 | [4] 0.004 | [5] 0.004

MAP2K4 isoform 2 (UniProt P45985)
inactive: [1] -0.018 | [2] 0.005 | [3] -0.065 | [4] -0.013 | [5] 0.188
